# Source: article PMC9760430 (International Journal of Biological Sciences, 2023)
# Assay: peptide synthesis
# Conditions: conjugation step, 230 and 735 nm
substance,measurement,value
"PEPTIDE1{C.F.E.T.L.R.G.D.L.R.I.L.S.I.L.R.[PraTrz].Q.N.L.[AzLysTrz].K.E.L.Q.D.[am]}|CHEM1{[IRDye800CW_suc]}$PEPTIDE1,PEPTIDE1,17:R3-21:R3|PEPTIDE1,CHEM1,1:R3-1:R1$$$V2.0",final LC-MS purity,>95%

# HELM strings list residues between dots; [ac] is acetyl, [am] amide, other brackets name non-standard units.
